Experimental data as given in US20170227547A1 (Hoffmann-La Roche, published 2017).
No constants are given. Whether binding was seen depends on the method and setting. Some results given as binding are weak or reduced against the parent protein; the word gives no strength.

T1: human IL-12 (human, UniProt P29459 23-219; P29460 23-328)
T1 construct: also called interleukin 12
T1 sequence (looked up) 1: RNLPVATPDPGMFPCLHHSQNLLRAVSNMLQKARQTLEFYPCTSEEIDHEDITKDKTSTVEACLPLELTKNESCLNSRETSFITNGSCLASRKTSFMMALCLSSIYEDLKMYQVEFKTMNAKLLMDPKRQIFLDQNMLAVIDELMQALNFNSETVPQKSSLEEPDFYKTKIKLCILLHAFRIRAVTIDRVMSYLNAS
T1 sequence (looked up) 2: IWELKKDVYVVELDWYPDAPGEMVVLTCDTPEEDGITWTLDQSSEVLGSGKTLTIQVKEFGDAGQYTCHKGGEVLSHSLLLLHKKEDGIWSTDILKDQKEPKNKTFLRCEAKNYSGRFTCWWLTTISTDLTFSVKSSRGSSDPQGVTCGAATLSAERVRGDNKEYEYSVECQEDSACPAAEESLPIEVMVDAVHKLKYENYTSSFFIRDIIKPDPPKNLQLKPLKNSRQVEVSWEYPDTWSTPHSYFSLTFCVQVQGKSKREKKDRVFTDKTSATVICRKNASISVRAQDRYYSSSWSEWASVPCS


Tests used:
human IL-12 [1] = biological target: T1, human IL-12; assay: IL-12 ELISA
human IL-12 [2] = biological target: T1, human IL-12; assay: SPR, IL-12
human IL-12 [3] = biological target: T1, human IL-12; assay: IL-12 ELISA, absorbance against antibody concentration

binding (human IL-12 [1]) | binding (human IL-12 [2]) | binding (human IL-12 [3]) | Binder
binds | binds | binds | Briakinumab (antibody, V domains shown, Fully human IgG1; also called ABT 874; J 695) VH: QVQLVESGGGVVQPGRSLRLSCAASGFTFSSYGMHWVRQAPGKGLEWVAFIRYDGSNKYYADSVKGRFTISRDNSKNTLYLQMNSLRAEDTAVYYCKTHGSHDNWGQGTMVTVSS VL: QSVLTQPPSVSGAPGQRVTISCSGSRSNIGSNTVKWYQQLPGTAPKLLIYYNDQRPSGVPDRFSGSKSGTSASLAITGLQAEDEADYYCQSYDRYTHPALLFGTGTKVTVLG
binds | binds | binds | mAb 2 (antibody, V domains shown, Fv domain of Briakinumab on the Ustekinumab constant domains (IgG1)) VH: QVQLVESGGGVVQPGRSLRLSCAASGFTFSSYGMHWVRQAPGKGLEWVAFIRYDGSNKYYADSVKGRFTISRDNSKNTLYLQMNSLRAEDTAVYYCKTHGSHDNWGQGTMVTVSS VL: QSVLTQPPSVSGAPGQRVTISCSGSRSNIGSNTVKWYQQLPGTAPKLLIYYNDQRPSGVPDRFSGSKSGTSASLAITGLQAEDEADYYCQSYDRYTHPALLFGTGTKVTVLG
